Reference: PubChem BioAssay AID1259254 (NCATS, 2017)
This is an unselected part of about 59,000 reagents tested. About 1,550 of all reagents (2.6%) were called active. 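G2 share is only a proxy for re-replication; each gene was hit by three separate siRNAs, and active genes were retested.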 Unmarked entries are inactive. Reagents against one gene are numbered here. Not all columns of the deposit are shown. Not given: the amount of reagent.

- Assay: 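Gene knock-downs that lead to re-replication, shown by excess G2 DNA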 (primary screen)
- System: human HCT116 colorectal cancer cells
- Reagents: single siRNA against human genes
- Duration: 3 days
- Detection: 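Imaged Hoechst DNA stain sorts each cell into a cycle phase by DNA amount; per plate, G2 fraction set to 0% for non-targeting and 100% for GMNN siRNA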
- Scale: G2 robust z-score and G2 cells, % of GMNN control: higher = more G2 cells, more excess DNA replication
- Hit rule: 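Active siRNAs have a G2 robust z of 5 or more median absolute deviations over the median, which in these data means about 38% or higher of GMNN control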

With knock-down of NSD2 #1, the screen gave G2 robust z-score -0.478; G2 cells, % of GMNN control -0.395. Against NSD2 #2 the deposit lists G2 robust z-score -0.695; G2 cells, % of GMNN control -1.93. Against NSD2 #3, the values are G2 robust z-score 6.19 (active); G2 cells, % of GMNN control 46.5. Knock-down of CDAN1 #1 came out at: G2 robust z-score 2.21; G2 cells, % of GMNN control 18.5. CDAN1 #2 showed G2 robust z-score 0.196; G2 cells, % of GMNN control 4.35. Silencing of CDAN1 #3 came out at: G2 robust z-score -0.573; G2 cells, % of GMNN control -1.07.

APH1A #1 scored G2 robust z-score 0.758; G2 cells, % of GMNN control 8.3. After knock-down of APH1A #2 the results were G2 robust z-score 3.14; G2 cells, % of GMNN control 25.1. Against APH1A #3, the values are G2 robust z-score 0.301; G2 cells, % of GMNN control 5.08. For GATAD2A #1, the entry reads G2 robust z-score 4.64; G2 cells, % of GMNN control 35.6. GATAD2A #2 gave G2 robust z-score 0.238; G2 cells, % of GMNN control 4.64. GATAD2A #3 gave G2 robust z-score -0.969; G2 cells, % of GMNN control -3.85.

Against ANKRD22 #1, the values are G2 robust z-score 2.31; G2 cells, % of GMNN control 19.3. ANKRD22 #2 showed G2 robust z-score 0.117; G2 cells, % of GMNN control 3.79. Depletion of ANKRD22 #3 came out at: G2 robust z-score -0.108; G2 cells, % of GMNN control 2.21. For DCPH1 #1, the entry reads G2 robust z-score -0.971; G2 cells, % of GMNN control -3.87. After knock-down of DCPH1 #2, the screen gave G2 robust z-score 0.892; G2 cells, % of GMNN control 9.24. Knock-down of DCPH1 #3 resulted in: G2 robust z-score -0.314; G2 cells, % of GMNN control 0.756.

DZIP3 #1 gave G2 robust z-score 0.727; G2 cells, % of GMNN control 8.08. For DZIP3 #2 the deposit lists G2 robust z-score -1.11; G2 cells, % of GMNN control -4.87. With knock-down of DZIP3 #3, the screen gave G2 robust z-score 0.497; G2 cells, % of GMNN control 6.46. Against CPT1C #1 the deposit lists G2 robust z-score -1.2; G2 cells, % of GMNN control -5.47. For CPT1C #2, the entry reads G2 robust z-score -0.899; G2 cells, % of GMNN control -3.36. Knock-down of CPT1C #3 gave: G2 robust z-score 0.0365; G2 cells, % of GMNN control 3.22.

KLHL3 #1 scored G2 robust z-score -0.00369; G2 cells, % of GMNN control 2.94. Silencing of KLHL3 #2 resulted in: G2 robust z-score -0.185; G2 cells, % of GMNN control 1.67. KLHL3 #3 gave G2 robust z-score -0.23; G2 cells, % of GMNN control 1.35. Silencing of PLCZ1 #1 gave: G2 robust z-score 1.2; G2 cells, % of GMNN control 11.4. PLCZ1 #2 gave G2 robust z-score 0.402; G2 cells, % of GMNN control 5.8. Against PLCZ1 #3, the values are G2 robust z-score -0.161; G2 cells, % of GMNN control 1.84.
